According to patent US20140088178A1, “COMBINATION OF ANTI-CLUSTERIN OLIGONUCLEOTIDE WITH ANDROGEN RECEPTOR ANTAGONIST FOR THE TREATMENT OF PROSTATE CANCER” (THE UNIVERSITY OF BRITISH COLUMBIA, priority 2011, published 2014):
No constants are given. Whether binding was seen depends on the method and setting. Some entries that bind do so weakly or less than the wild type.

Amino acid sequences for entries named in this document (tags omitted).
UniProt P10275: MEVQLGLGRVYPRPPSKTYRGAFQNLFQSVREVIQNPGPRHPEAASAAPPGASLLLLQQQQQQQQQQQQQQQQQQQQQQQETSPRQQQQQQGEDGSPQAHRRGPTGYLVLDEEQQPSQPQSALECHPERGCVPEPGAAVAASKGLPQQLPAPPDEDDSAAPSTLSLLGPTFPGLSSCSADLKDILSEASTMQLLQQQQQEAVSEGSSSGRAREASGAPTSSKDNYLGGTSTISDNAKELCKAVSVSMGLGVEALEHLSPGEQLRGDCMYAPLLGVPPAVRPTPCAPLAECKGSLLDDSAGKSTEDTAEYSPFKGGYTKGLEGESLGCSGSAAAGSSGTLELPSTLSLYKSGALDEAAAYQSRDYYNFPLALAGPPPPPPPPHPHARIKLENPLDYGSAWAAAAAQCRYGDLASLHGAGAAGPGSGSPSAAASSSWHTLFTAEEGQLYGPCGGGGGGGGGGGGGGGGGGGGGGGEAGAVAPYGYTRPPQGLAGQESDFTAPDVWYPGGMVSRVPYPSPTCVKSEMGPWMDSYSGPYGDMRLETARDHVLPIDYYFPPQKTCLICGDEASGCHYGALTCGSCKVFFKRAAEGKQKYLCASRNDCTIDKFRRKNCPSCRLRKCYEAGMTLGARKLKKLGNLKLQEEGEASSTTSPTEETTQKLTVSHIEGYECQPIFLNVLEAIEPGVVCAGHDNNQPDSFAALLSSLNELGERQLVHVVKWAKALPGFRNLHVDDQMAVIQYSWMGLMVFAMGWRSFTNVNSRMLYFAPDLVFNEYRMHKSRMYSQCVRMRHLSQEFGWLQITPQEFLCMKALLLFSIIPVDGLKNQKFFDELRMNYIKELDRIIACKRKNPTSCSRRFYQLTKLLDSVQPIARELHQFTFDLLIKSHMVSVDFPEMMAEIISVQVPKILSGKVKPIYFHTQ

Target: T1, FKBP52 (Hsp56) (UniProt Q02790)
T1 sequence (looked up): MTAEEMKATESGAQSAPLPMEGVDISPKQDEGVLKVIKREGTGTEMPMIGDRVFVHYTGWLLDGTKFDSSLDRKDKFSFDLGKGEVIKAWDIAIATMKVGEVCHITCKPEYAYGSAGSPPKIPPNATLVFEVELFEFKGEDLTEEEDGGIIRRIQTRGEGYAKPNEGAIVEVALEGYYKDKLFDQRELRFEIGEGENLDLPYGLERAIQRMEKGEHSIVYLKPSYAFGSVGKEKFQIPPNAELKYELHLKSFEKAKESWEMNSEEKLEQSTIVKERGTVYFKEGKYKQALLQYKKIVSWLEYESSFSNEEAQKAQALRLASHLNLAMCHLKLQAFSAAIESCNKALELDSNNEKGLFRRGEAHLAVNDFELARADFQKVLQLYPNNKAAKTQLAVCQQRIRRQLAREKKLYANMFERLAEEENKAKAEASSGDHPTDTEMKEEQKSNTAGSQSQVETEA
Test: discussion of LNCaP cell data; method not given

- binding: binds
Substance: androgen receptor (from UniProt P10275 1-920)
